The results in this text go back to paper PMC3777911.

Sequences of proteins named here, by UniProt entry; tags and fusion partners are left off. A change or cut given only in a name is not applied to a line headed by its entry. A line that says so, or that is headed by a name, gives the form on record, which may keep a tag or linker.
UniProt P55735: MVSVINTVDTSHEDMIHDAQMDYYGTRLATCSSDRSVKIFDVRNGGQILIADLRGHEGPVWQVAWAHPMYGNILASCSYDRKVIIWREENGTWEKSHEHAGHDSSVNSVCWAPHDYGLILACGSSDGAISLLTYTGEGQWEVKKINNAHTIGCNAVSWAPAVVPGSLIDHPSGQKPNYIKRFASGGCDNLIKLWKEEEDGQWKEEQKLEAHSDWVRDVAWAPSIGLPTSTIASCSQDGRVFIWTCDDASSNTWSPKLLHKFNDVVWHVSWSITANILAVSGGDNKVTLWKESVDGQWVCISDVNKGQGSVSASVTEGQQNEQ
UniProt P12815: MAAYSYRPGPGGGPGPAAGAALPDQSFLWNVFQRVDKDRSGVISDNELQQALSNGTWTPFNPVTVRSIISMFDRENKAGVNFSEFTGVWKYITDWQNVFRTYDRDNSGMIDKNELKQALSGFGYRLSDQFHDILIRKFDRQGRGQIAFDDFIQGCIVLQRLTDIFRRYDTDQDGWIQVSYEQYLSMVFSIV
ALG-2.1, splice variant of ALG-2 (P12815-2, form named): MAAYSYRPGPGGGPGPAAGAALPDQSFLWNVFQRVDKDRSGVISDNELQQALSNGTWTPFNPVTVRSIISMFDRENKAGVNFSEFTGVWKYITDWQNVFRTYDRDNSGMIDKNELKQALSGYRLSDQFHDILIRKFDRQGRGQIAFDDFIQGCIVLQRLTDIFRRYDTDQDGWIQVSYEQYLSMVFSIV
UniProt Q15436: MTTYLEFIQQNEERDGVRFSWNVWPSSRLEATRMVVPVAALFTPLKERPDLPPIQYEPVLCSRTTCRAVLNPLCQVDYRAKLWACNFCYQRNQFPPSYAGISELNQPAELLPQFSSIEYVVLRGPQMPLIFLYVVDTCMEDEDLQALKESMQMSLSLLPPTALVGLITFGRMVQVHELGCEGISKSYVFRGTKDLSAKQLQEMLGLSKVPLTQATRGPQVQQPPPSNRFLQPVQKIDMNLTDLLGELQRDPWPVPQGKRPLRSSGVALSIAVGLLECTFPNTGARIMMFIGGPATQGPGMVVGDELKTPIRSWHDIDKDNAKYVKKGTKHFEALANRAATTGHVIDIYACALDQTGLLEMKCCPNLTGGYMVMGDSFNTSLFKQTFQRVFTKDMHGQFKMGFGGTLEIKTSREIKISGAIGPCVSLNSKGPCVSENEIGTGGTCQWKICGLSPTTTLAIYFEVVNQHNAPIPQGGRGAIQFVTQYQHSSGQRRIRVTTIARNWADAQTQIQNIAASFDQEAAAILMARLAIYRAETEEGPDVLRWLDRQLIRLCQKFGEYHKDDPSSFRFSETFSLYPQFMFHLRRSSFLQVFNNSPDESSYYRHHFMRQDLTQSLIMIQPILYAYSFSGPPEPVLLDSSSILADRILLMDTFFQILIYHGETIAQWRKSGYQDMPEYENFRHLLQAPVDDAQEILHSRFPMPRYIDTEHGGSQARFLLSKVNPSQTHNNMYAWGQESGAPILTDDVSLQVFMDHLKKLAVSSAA

Experiment [1] addresses HA-Sec13/His-Sec31A complex (outer COPII coat), wild type (UniProt P55735). Briefly: pull-down; His-tagged Sec31A (Sec13/Sec31A) immobilised on Nickel beads, recombinant ALG-2 versions added, in the presence of Ca2+; eluates on SDS-PAGE, SyproRed; ratios from fluorescence intensity; both purified.
Experiment [2] deals with T1, His-Sec24D (UniProt O94855).
T1 sequence: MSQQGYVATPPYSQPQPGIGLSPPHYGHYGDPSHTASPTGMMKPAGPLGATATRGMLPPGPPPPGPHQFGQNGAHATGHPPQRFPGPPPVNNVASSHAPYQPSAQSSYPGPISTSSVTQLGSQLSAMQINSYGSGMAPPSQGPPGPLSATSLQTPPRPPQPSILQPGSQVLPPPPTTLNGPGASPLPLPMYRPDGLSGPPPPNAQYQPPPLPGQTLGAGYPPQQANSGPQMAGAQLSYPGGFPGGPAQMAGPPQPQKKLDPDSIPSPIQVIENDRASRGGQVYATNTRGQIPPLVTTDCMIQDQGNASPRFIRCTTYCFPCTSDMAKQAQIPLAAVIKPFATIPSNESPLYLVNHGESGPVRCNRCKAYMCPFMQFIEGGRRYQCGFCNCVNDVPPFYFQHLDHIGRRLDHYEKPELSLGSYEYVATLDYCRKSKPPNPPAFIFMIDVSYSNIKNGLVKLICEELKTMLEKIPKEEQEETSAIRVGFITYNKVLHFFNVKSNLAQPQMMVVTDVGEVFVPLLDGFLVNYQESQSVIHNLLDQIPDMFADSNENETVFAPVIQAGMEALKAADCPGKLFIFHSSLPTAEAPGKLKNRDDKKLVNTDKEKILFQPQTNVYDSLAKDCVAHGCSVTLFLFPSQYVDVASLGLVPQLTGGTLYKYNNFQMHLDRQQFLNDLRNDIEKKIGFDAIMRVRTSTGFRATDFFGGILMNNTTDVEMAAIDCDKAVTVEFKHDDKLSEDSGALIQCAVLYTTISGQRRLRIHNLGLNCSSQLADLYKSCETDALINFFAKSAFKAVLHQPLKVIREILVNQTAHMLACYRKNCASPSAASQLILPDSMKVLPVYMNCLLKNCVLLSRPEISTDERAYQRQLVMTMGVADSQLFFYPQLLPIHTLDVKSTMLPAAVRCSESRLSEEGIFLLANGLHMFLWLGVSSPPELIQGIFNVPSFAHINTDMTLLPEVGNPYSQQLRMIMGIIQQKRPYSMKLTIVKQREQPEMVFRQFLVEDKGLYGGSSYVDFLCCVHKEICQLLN
The experiment can be described thus: co-purification (Ni-NTA affinity chromatography); the two chains co-expressed in ES-SF9 cells; complex purified on Ni-NTA through the His tag of Sec31A or Sec24; purified Sec13/Sec31A collected again on Ni beads, SyproRed.

Experiment [3] concerns the target HA-Sec13/His-Sec31AdelABD complex (Sec31A lacking the ALG-2 binding domain, amino acids 827-852) (UniProt P55735). Briefly: pull-down; His-tagged Sec31A (Sec13/Sec31A) immobilised on Nickel beads, recombinant ALG-2 versions added, in the presence of Ca2+; eluates on SDS-PAGE, SyproRed; ratios from fluorescence intensity; both purified.

No constants are given. Whether binding was seen depends on the method and setting. Some results given as binding are weak or reduced against the parent protein; the word gives no strength. For part of these data: Tags and fused reporters may be left off the sequences shown.

As to “ALG-2.1, splice variant of ALG-2 (from UniProt P12815-2 1-189)”, the binding entry in experiment [1] is “binds”.

Regarding Flag-Sec23A (from UniProt Q15436 1-765), in experiment [2], the binding result was “binds”. Regarding “ALG-2 (product of the apoptosis linked gene-2), recombinant wild type (from UniProt P12815 1-191)”, the binding entry in experiment [3] is on record as “no binding”.
